System: guinea pig distal colon
Test: fecal pellet propulsion motility assay in isolated distal colon (GIMM)
Details: intraluminal, after 20 minutes; extract 2 g/100 mL Krebs; granisetron 2 μM; GR-113808 5 μM
Description: Gastrointestinal Motility Assays: Segments (˜10 cm long) of distal colon were pinned on either end in a Sylgard-lined 50 mL organ bath, continuously perfused with oxygenated Krebs solution (rate: 10 mL min^−1) and maintained at temperatures between 36 and 37° C. Tissues were initially allowed to equilibrate for 30 mins in re-circulating Krebs solution. Colonic motility was studied using the Gastronintestinal Motility Monitoring system (GIMM; Med-Associates Inc., Saint Albans, Vt., USA), which included a digital video camera (Catamount Research and Development Inc, St Albans, Vt., USA) to film fecal pellet propulsion. […] The GIMM system software calculated velocities by tracking pellets as they traversed colon segments. […] The effects of extract and test compounds were evaluated by obtaining velocities of four trials taken at 5-min intervals (5-20 min) Normalized velocity data for these treatments were obtained by dividing the test velocities acquired by the average velocity of the five pellet propulsion runs performed in vehicle solution (runs 1-5, above). […]
A segment (˜10-12 cm long) of distal colon was pinned on either end in a Sylgard-lined 50 mL organ bath being continuously perfused with oxygenated Krebs solution (rate: 10 mL min^−1) and maintained at temperatures between 36-37° C. […] Baseline velocities were measured for 20 minutes. […]

Structure (SMILES): CN1C2CCCC1CC(NC(=O)c1nn(C)c3ccccc13)C2.Cl (stereo not shown) [granisetron, granisetron hydrochloride]
- inhibition of pellet propulsion: 15%
